Reference: the supplement of paper PMC9015667
Counter-ions that a name gives are not always drawn. This is one part of the list. Most values come without repeats; read them as rough.

What was measured:
Experiment in all cases: reduction in cell viability relative to untreated/vehicle; higher = more growth inhibition
Conditions in all cases: 200 nM; 72 h
M229P = tested on: M229P (parental melanoma line)
M229R = tested on: M229R (matched melanoma line resistant to BRAF inhibitors)
M238P = tested on: M238P (parental melanoma line)
M238R = tested on: M238R (matched melanoma line resistant to BRAF inhibitors)
M249P = tested on: M249P (parental melanoma line)
M249R = tested on: M249R (matched melanoma line resistant to BRAF inhibitors)
UACC62P = tested on: UACC62P (parental melanoma line)
UACC62R = tested on: UACC62R (matched melanoma line resistant to BRAF inhibitors)

Compound | reduction in cell viability (M229P) | reduction in cell viability (M229R) | reduction in cell viability (M238P) | reduction in cell viability (M238R) | reduction in cell viability (M249P) | reduction in cell viability (M249R) | reduction in cell viability (UACC62P) | reduction in cell viability (UACC62R)
COc1cc2c(Oc3ccc(NC(=O)C4(C(=O)Nc5ccc(F)cc5)CC4)cc3F)ccnc2cc1OCCCN1CCOCC1 [Foretinib] | < 0% | 20.8% | 5.91% | 23% | < 0% | 3.11% | < 0% | < 0%
COc1cccc(-c2ccc(NC(=O)C3=C(C(=O)O)CCC3)c(F)c2)c1 [Vidofludimus] | < 0% | 5.25% | < 0% | < 0% | < 0% | < 0% | < 0% | < 0%
O=[N+]([O-])c1ccc(Nc2ccccc2-c2ccccc2)c2nonc12 | < 0% | < 0% | < 0% | < 0% | < 0% | < 0% | < 0% | < 0%
CCc1cnn2c(NCc3ccc[n+]([O-])c3)cc(N3CCCC[C@H]3CCO)nc12 | 43.5% | 64.3% | 70.4% | 51.1% | 69.3% | 78.8% | 60.3% | 62.2%
COc1nccc(-c2c(-c3ccc(F)cc3)ncn2C2CCNCC2)n1 | < 0% | < 0% | < 0% | < 0% | < 0% | < 0% | < 0% | < 0%
CN1CCCC(n2nc(Cc3ccc(Cl)cc3)c3ccccc3c2=O)CC1 (stereo not drawn) [Azelastine hydrochloride] | < 0% | < 0% | < 0% | < 0% | < 0% | < 0% | < 0% | < 0%
CC(COc1ccccc1)N(CCCl)Cc1ccccc1 (stereo not drawn) [Phenoxybenzamine hydrochloride] | < 0% | 1.91% | < 0% | < 0% | < 0% | < 0% | < 0% | < 0%
CC(C)(Sc1cc(C(C)(C)C)c(O)c(C(C)(C)C)c1)Sc1cc(C(C)(C)C)c(O)c(C(C)(C)C)c1 [Probucol] | < 0% | < 0% | < 0% | < 0% | < 0% | < 0% | < 0% | < 0%
COc1cc2ncnc(Nc3ccc(F)c(Cl)c3)c2cc1OCCCN1CCOCC1 [Gefitinib] | < 0% | < 0% | < 0% | < 0% | < 0% | < 0% | 6.14% | < 0%
FC(F)(F)c1ccc(Nc2nc3ccc(Oc4ccnc(-c5ncc(C(F)(F)F)[nH]5)c4)cc3[nH]2)cc1 [RAF-265 derivative] | < 0% | < 0% | < 0% | < 0% | < 0% | < 0% | < 0% | < 0%
Cc1nc(NC(=O)N2CCC[C@H]2C(N)=O)sc1-c1ccnc(C(C)(C)C(F)(F)F)c1 | < 0% | 8.84% | 17.3% | 9.44% | < 0% | < 0% | 9.43% | < 0%
CCN(CC)CC#CCOC(=O)C(O)(c1ccccc1)C1CCCCC1 (stereo not drawn) [Oxybutynin chloride] | < 0% | < 0% | < 0% | < 0% | < 0% | < 0% | < 0% | < 0%
CN(C)/[N+]([O-])=N/Oc1cc(ON[N+](=O)N2CCN(C(=O)c3cc(Cc4n[nH]c(=O)c5ccccc45)ccc3F)CC2)c([N+](=O)[O-])cc1[N+](=O)[O-] | < 0% | < 0% | < 0% | < 0% | < 0% | < 0% | < 0% | < 0%
CN[C@H](CC(C)C)C(=O)N[C@H]1C(=O)N[C@@H](CC(N)=O)C(=O)N[C@H]2C(=O)N[C@H]3C(=O)N[C@H](C(=O)N[C@H](C(=O)O)c4cc(O)cc(O)c4-c4cc3ccc4O)[C@H](O)c3ccc(c(Cl)c3)Oc3cc2cc(c3O[C@@H]2O[C@H](CO)[C@@H](O)[C@H](O)[C@H]2O[C@H]2C[C@](C)(N)[C@H](O)[C@H](C)O2)Oc2ccc(cc2Cl)[C@H]1O [Vancomycin hydrochloride] | < 0% | < 0% | < 0% | < 0% | < 0% | 1.15% | < 0% | < 0%
CCc1nc(N)nc(N)c1-c1ccc(Cl)cc1 [Pyrimethamine] | < 0% | < 0% | < 0% | < 0% | 3.94% | 3.29% | 5.64% | < 0%
Cc1cccc(-c2[nH]c(C(C)(C)C)nc2-c2ccc3nccnc3c2)n1 | < 0% | < 0% | < 0% | < 0% | < 0% | < 0% | 3.59% | < 0%
CCCCCNC(=N)N/N=C/c1c[nH]c2ccc(OC)cc12 [Tegaserod maleate] | < 0% | < 0% | < 0% | < 0% | < 0% | < 0% | < 0% | < 0%
Nc1ccc(S(=O)(=O)Nc2ccnn2-c2ccccc2)cc1 [Sulfaphenazole] | < 0% | < 0% | < 0% | < 0% | < 0% | < 0% | < 0% | < 0%
COc1ccc2cc([C@H](C)C(=O)O)ccc2c1 [Naproxen sodium] | < 0% | < 0% | < 0% | < 0% | < 0% | < 0% | < 0% | < 0%
CC(C)c1ccc(Cn2ccc3c4c(N)nc(NC5CC5)nc4ccc32)cc1 | 23.9% | 48.1% | 80.9% | 51.4% | 54.4% | 43.1% | 58.5% | 71.6%
CC(=O)O/N=C1/C(c2c(O)[nH]c3cc(Br)ccc23)=Nc2ccccc21 [6-Bromoindirubin-3-acetoxime] | < 0% | < 0% | < 0% | < 0% | < 0% | < 0% | < 0% | < 0%

Compounds from the list above containing an aryl methoxy group, in the order listed:
Compound | reduction in cell viability (M229P) | reduction in cell viability (M229R) | reduction in cell viability (M238P) | reduction in cell viability (M238R) | reduction in cell viability (M249P) | reduction in cell viability (M249R) | reduction in cell viability (UACC62P) | reduction in cell viability (UACC62R)
COc1cc2c(Oc3ccc(NC(=O)C4(C(=O)Nc5ccc(F)cc5)CC4)cc3F)ccnc2cc1OCCCN1CCOCC1 [Foretinib] | < 0% | 20.8% | 5.91% | 23% | < 0% | 3.11% | < 0% | < 0%
COc1cccc(-c2ccc(NC(=O)C3=C(C(=O)O)CCC3)c(F)c2)c1 [Vidofludimus] | < 0% | 5.25% | < 0% | < 0% | < 0% | < 0% | < 0% | < 0%
COc1nccc(-c2c(-c3ccc(F)cc3)ncn2C2CCNCC2)n1 | < 0% | < 0% | < 0% | < 0% | < 0% | < 0% | < 0% | < 0%
COc1cc2ncnc(Nc3ccc(F)c(Cl)c3)c2cc1OCCCN1CCOCC1 [Gefitinib] | < 0% | < 0% | < 0% | < 0% | < 0% | < 0% | 6.14% | < 0%
CCCCCNC(=N)N/N=C/c1c[nH]c2ccc(OC)cc12 [Tegaserod maleate] | < 0% | < 0% | < 0% | < 0% | < 0% | < 0% | < 0% | < 0%
COc1ccc2cc([C@H](C)C(=O)O)ccc2c1 [Naproxen sodium] | < 0% | < 0% | < 0% | < 0% | < 0% | < 0% | < 0% | < 0%
